PubChem BioAssay AID1259308, NCATS, 2017

- Aim: 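Knock-downs that increase output of a recombinant reporter protein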 (primary screen)
- Cell system: human HEK293 embryonic kidney cells stably expressing firefly luciferase (HEK-CMV-Luc2-Hygro)
- Knock-down reagent: single siRNA against human genes, 0.8 pmol siRNA per well
- Time to read-out: 72 h
- Measurement: 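Luciferase light (ONE-Glo) measured on one replicate plate set and viability (CellTiter-Glo) on the other, scaled to a negative control siRNA, with robust z-scores and luciferase per cell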
- Direction: total luciferase, z-score and total luciferase, % of control: higher = more reporter protein produced; luciferase per cell, z-score: higher = more reporter output per viable cell; viable cells, % of control: higher = more viable cells
- Rule for the call: 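An siRNA counts as active if its total luciferase robust z-score exceeds 3; genes with two or more such siRNAs out of three were retested with fresh siRNAs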
- Calls: active = raised luciferase; inactive = no rise
Shown is one part, drawn at random, of about 59,000 reagents. About 1,510 of all reagents (2.6%) count as active. 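Calls use total luciferase alone and ignore viability, so some active siRNAs may act by altering cell number.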 The numbers tell different reagents against one gene apart.

gene,reagent no.,"total luciferase, z-score","total luciferase, % of control","luciferase per cell, z-score","viable cells, % of control",call
KCNQ4,1,-1.08,60.3,-1.89,111,inactive
KCNQ4,2,0.241,86.7,0.723,80.1,inactive
KCNQ4,3,0.308,88,0.116,95.4,inactive
RAX2,1,-0.369,74.6,-0.538,96,inactive
RAX2,2,-0.32,75.5,-0.499,96.2,inactive
RAX2,3,0.779,97.4,0.793,88.3,inactive
FAM74A3,1,-0.601,69.9,-1.17,106,inactive
FAM74A3,2,-0.891,64.2,0.237,67.4,inactive
FAM74A3,3,-0.222,77.5,0.81,69.9,inactive
SLC35E2B,1,-0.742,67.1,0.301,69.3,inactive
SLC35E2B,2,-0.191,78.1,-0.00911,87.5,inactive
SLC35E2B,3,0.411,90.1,0.281,93.5,inactive
KRTAP5-2,1,1.23,106,1.78,74.4,inactive
KRTAP5-2,2,-0.0483,80.9,-0.0563,91.8,inactive
KRTAP5-2,3,-0.801,66,-0.324,80.3,inactive
GBA3,1,0.838,98.6,0.528,95.8,inactive
GBA3,2,2.11,124,1.36,96.8,inactive
GBA3,3,-0.0314,81.3,-0.691,109,inactive
OGFRP1,1,1.76,117,0.938,102,inactive
OGFRP1,2,-0.0864,80.2,-0.574,104,inactive
OGFRP1,3,-0.725,67.5,-0.223,79.9,inactive

Laid out differently: 7 of the entries above.
gene | reagent no. | total luciferase, z-score | total luciferase, % of control | luciferase per cell, z-score | viable cells, % of control | call
KCNQ4 | 1 | -1.08 | 60.3 | -1.89 | 111 | inactive
KCNQ4 | 2 | 0.241 | 86.7 | 0.723 | 80.1 | inactive
KCNQ4 | 3 | 0.308 | 88 | 0.116 | 95.4 | inactive
RAX2 | 1 | -0.369 | 74.6 | -0.538 | 96 | inactive
RAX2 | 2 | -0.32 | 75.5 | -0.499 | 96.2 | inactive
RAX2 | 3 | 0.779 | 97.4 | 0.793 | 88.3 | inactive
FAM74A3 | 1 | -0.601 | 69.9 | -1.17 | 106 | inactive

Additional records:
gene,reagent no.,"total luciferase, z-score","total luciferase, % of control","luciferase per cell, z-score","viable cells, % of control",call
SHISA2,1,1.16,105,0.503,103,inactive
SHISA2,2,0.54,92.6,0.737,85.2,inactive
SHISA2,3,0.113,84.1,0.168,89.9,inactive
GIGYF2,1,-1.33,55.5,-1.17,84.5,inactive
GIGYF2,2,0.0502,82.9,-0.296,100,inactive
GIGYF2,3,0.951,101,0.581,96.7,inactive
RAB3IL1,1,-0.275,76.4,-0.442,95.9,inactive
RAB3IL1,2,-0.114,79.6,-0.312,96.6,inactive
RAB3IL1,3,-1.89,44.2,-2.49,95.3,inactive
MOCS3,1,-1.44,53.2,0.357,54.1,inactive
MOCS3,2,3.15,145,3,73.3,active
MOCS3,3,-0.93,63.4,-0.698,85.1,inactive
DIO1,1,0.82,98.2,0.656,92.3,inactive
DIO1,2,-1.15,59,-1.08,87.6,inactive
DIO1,3,-1.73,47.5,-1.74,84,inactive
NXPH4,1,2.96,141,4.64,46.4,inactive
NXPH4,2,-1.87,44.6,-1.95,83.3,inactive
NXPH4,3,-1.7,48.2,-1.05,70.9,inactive
STAR,1,2.26,127,2.08,81.8,inactive
STAR,2,-1.68,48.4,-1.63,83.1,inactive
STAR,3,-0.459,72.8,-0.733,98.6,inactive
BMP2,1,0.22,86.3,0.773,78.6,inactive
BMP2,2,4.01,162,3.93,64.2,active
BMP2,3,0.256,87,-0.291,105,inactive
F9,1,1.51,112,0.799,101,inactive
F9,2,-0.128,79.3,-0.0691,90.3,inactive
F9,3,0.382,89.5,0.206,94.7,inactive
POU5F2,1,1.46,111,1.08,93.3,inactive
POU5F2,2,0.187,85.6,0.08,93.7,inactive
POU5F2,3,0.0606,83.1,-0.133,96.2,inactive
OR10V1,1,1.47,111,3.46,50,inactive
OR10V1,2,-0.472,72.5,-0.52,92.9,inactive
OR10V1,3,-1.54,51.2,-0.816,71,inactive
TAS2R41,1,0.388,89.6,0.335,91.7,inactive
TAS2R41,2,-1.68,48.5,-0.305,58.8,inactive
TAS2R41,3,0.375,89.3,1.24,71.9,inactive
